No constants are given. Whether binding was seen depends on the method and setting. Binding can be weak; no strength is given.
Target: T1, TAT-labeled WT α5-integrin peptide (PPATSDA)
T1 sequence (peptide): PPATSDA
Assay: ELISA; amine surface stripwell plate coated with 4 µM TAT-labeled α5 peptide in 0.1 mM NaCO3 (pH 9.6), 3 h at 4°C; blocked with 2% BSA in TBST; 1 µg recombinant GST protein in blocking buffer for 1 h; detected with rabbit anti-GST and HRP anti-rabbit antibody; both purified

## GST-ZO-1 PDZ1-3 (WT) (domain or fragment)
  binding: binds

— paper PMC3742740
